This is an account of results in paper doi:10.64898/2025.12.12.693873.

By UniProt entry, the sequences of proteins in these tests, tags left out. Where a name states a change or a piece, a line headed by the entry shows the natural chain unless it says otherwise.
UniProt Q7KT57: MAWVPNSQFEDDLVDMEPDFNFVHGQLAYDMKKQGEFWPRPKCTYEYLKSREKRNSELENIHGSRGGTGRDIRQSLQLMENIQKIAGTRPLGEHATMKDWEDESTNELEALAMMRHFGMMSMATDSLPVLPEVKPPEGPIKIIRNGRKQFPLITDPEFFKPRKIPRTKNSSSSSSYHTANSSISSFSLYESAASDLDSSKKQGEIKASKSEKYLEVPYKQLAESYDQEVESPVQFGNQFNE

What all share (test): co-IP
In assay [1] the target is T1, Myc-tagged Spn-E^4A (Drosophila melanogaster) (UniProt Q9VF26).
T1 sequence: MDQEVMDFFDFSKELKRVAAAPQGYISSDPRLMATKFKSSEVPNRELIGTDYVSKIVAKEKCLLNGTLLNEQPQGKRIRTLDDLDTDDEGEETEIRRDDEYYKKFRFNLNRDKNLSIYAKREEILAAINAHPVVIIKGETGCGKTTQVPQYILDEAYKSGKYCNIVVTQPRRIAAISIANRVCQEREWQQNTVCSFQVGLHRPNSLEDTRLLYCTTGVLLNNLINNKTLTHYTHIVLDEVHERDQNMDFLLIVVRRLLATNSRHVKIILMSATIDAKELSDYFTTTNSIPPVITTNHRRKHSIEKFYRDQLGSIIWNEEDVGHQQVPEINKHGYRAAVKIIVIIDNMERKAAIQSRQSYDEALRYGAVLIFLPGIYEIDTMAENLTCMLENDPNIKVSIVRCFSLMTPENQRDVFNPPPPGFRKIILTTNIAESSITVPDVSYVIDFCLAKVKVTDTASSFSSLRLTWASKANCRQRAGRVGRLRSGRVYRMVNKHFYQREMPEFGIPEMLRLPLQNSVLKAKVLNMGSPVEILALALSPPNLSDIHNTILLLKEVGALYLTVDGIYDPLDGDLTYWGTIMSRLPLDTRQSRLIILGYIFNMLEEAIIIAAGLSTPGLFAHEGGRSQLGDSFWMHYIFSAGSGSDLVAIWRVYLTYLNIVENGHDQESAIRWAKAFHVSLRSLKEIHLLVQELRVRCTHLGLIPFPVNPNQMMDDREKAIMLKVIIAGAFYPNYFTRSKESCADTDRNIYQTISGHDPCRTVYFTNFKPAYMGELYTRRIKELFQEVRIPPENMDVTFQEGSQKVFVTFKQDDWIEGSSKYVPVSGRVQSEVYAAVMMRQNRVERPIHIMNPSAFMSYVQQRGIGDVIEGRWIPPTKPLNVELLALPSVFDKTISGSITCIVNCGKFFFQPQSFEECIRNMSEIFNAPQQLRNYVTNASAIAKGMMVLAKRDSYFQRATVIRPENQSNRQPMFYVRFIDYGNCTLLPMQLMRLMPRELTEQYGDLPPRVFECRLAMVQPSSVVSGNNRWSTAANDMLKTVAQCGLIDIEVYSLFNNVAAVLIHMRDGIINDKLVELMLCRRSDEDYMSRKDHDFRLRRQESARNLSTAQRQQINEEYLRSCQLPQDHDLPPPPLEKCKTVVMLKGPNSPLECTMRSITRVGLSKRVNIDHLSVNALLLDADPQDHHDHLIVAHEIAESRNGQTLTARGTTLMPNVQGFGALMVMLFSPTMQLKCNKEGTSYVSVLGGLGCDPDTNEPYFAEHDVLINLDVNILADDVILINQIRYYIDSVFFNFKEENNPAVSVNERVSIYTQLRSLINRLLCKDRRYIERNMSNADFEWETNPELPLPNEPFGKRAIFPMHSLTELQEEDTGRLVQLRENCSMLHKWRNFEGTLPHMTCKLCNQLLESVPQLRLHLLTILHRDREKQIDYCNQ

The target in assay [2] is T2, Myc-tagged Spn-E^WT (Drosophila melanogaster) (UniProt Q9VF26).
T2 sequence: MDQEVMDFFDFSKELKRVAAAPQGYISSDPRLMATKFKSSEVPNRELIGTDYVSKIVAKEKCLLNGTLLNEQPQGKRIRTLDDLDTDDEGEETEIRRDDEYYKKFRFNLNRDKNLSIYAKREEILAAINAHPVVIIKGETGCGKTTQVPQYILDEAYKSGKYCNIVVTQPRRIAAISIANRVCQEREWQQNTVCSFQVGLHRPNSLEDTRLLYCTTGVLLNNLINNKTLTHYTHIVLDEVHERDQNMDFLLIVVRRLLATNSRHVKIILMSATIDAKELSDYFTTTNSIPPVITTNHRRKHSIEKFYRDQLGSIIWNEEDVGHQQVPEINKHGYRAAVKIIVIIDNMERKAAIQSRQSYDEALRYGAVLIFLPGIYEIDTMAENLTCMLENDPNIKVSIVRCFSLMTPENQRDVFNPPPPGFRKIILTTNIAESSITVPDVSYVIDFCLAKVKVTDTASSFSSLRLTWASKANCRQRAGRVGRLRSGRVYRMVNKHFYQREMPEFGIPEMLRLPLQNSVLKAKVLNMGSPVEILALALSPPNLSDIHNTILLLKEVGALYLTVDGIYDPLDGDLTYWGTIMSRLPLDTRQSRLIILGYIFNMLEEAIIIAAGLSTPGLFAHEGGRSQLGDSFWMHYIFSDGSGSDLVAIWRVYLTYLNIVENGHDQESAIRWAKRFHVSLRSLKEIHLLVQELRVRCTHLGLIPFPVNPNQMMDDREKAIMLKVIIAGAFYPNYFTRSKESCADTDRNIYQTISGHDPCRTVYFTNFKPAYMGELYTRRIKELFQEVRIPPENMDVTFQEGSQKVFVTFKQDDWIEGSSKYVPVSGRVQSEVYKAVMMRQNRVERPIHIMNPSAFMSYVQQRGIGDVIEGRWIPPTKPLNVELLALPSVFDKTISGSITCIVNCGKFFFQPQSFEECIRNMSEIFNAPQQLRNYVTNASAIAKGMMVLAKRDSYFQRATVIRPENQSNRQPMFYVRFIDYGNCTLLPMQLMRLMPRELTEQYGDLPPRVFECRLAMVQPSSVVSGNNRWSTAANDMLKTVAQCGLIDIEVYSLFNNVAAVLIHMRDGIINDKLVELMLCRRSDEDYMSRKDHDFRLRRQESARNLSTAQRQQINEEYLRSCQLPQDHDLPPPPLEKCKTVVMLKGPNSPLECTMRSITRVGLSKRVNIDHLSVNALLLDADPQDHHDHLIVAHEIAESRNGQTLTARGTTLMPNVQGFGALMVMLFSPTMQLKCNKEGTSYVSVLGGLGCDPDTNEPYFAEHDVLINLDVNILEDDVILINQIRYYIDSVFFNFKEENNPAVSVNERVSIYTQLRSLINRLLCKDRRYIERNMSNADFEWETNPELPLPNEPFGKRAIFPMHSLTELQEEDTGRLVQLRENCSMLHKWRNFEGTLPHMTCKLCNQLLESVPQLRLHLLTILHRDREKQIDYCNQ

Assay [3] concerns the target GFP-3xFlag-Squ^WT (pNative-Squ^WT) (Drosophila melanogaster).
The target of assay [4] is Squash (Squ), endogenous (Drosophila melanogaster (endogenous in ovaries)) (UniProt Q7KT57).
The target in assay [5] is GFP-3xFlag-Squ^4A (pNative-Squ^4A) (Drosophila melanogaster).

No constants are given. Whether binding was seen depends on the method and setting. Binding seen in cells or lysates may run through a third protein. For some of these results: A result given as binding can be weak or reduced; the word gives no strength. For some of these results: Where a sequence is shown, tags or fusion partners need not be part of it.

For the molecule Flag-Squ (Drosophila melanogaster), the binding entry in assay [1] is given as “no binding”; in assay [2], “binds”.

B1: Spindle-E (Spn-E), endogenous (protein, UniProt Q9VF26 1-1434)
chain: MDQEVMDFFDFSKELKRVAAAPQGYISSDPRLMATKFKSSEVPNRELIGTDYVSKIVAKEKCLLNGTLLNEQPQGKRIRTLDDLDTDDEGEETEIRRDDEYYKKFRFNLNRDKNLSIYAKREEILAAINAHPVVIIKGETGCGKTTQVPQYILDEAYKSGKYCNIVVTQPRRIAAISIANRVCQEREWQQNTVCSFQVGLHRPNSLEDTRLLYCTTGVLLNNLINNKTLTHYTHIVLDEVHERDQNMDFLLIVVRRLLATNSRHVKIILMSATIDAKELSDYFTTTNSIPPVITTNHRRKHSIEKFYRDQLGSIIWNEEDVGHQQVPEINKHGYRAAVKIIVIIDNMERKAAIQSRQSYDEALRYGAVLIFLPGIYEIDTMAENLTCMLENDPNIKVSIVRCFSLMTPENQRDVFNPPPPGFRKIILTTNIAESSITVPDVSYVIDFCLAKVKVTDTASSFSSLRLTWASKANCRQRAGRVGRLRSGRVYRMVNKHFYQREMPEFGIPEMLRLPLQNSVLKAKVLNMGSPVEILALALSPPNLSDIHNTILLLKEVGALYLTVDGIYDPLDGDLTYWGTIMSRLPLDTRQSRLIILGYIFNMLEEAIIIAAGLSTPGLFAHEGGRSQLGDSFWMHYIFSDGSGSDLVAIWRVYLTYLNIVENGHDQESAIRWAKRFHVSLRSLKEIHLLVQELRVRCTHLGLIPFPVNPNQMMDDREKAIMLKVIIAGAFYPNYFTRSKESCADTDRNIYQTISGHDPCRTVYFTNFKPAYMGELYTRRIKELFQEVRIPPENMDVTFQEGSQKVFVTFKQDDWIEGSSKYVPVSGRVQSEVYKAVMMRQNRVERPIHIMNPSAFMSYVQQRGIGDVIEGRWIPPTKPLNVELLALPSVFDKTISGSITCIVNCGKFFFQPQSFEECIRNMSEIFNAPQQLRNYVTNASAIAKGMMVLAKRDSYFQRATVIRPENQSNRQPMFYVRFIDYGNCTLLPMQLMRLMPRELTEQYGDLPPRVFECRLAMVQPSSVVSGNNRWSTAANDMLKTVAQCGLIDIEVYSLFNNVAAVLIHMRDGIINDKLVELMLCRRSDEDYMSRKDHDFRLRRQESARNLSTAQRQQINEEYLRSCQLPQDHDLPPPPLEKCKTVVMLKGPNSPLECTMRSITRVGLSKRVNIDHLSVNALLLDADPQDHHDHLIVAHEIAESRNGQTLTARGTTLMPNVQGFGALMVMLFSPTMQLKCNKEGTSYVSVLGGLGCDPDTNEPYFAEHDVLINLDVNILEDDVILINQIRYYIDSVFFNFKEENNPAVSVNERVSIYTQLRSLINRLLCKDRRYIERNMSNADFEWETNPELPLPNEPFGKRAIFPMHSLTELQEEDTGRLVQLRENCSMLHKWRNFEGTLPHMTCKLCNQLLESVPQLRLHLLTILHRDREKQIDYCNQ
Turning to B1, the binding entry in assay [3] and in assay [4] was “binds” in each case.

B2: Ago3, endogenous (protein, UniProt Q7PLK0 1-867)
chain: MSGRGNLLSLFNKNAGNMGKSISSKDHEIDSGLDFNNSESSGERLLSSHNIETDLITTLQHVNISVGRGRARLIDTLKTDDHTSNQFITSESKENITKKTKGPESEAIASENGLFFPDLIYGSKGSSVNIYCNYLKLTTDESKGVFNYEVRFFPPIDSVHLRIKYLNDHKDKLGGTKTFDGNTLYLPILLPNKMTVFISKAEDVELQIRILYKKKEEMRNCTQLYNILFDRVMKVLNYVKFDRKQFDPSRPKIIPLAKLEVWPGYVTAVDEYKGGLMLCCDVSHRILCQKTVLEMLVDLYQQNVEHYQESARKMLVGNIVLTRYNNRTYKINDICFDQNPTCQFEIKTGCTSYVEYYKQYHNINIKDVNQPLIYSIKKSRGIPAERENLQFCLIPELCYLTGLRDEVRSDNKLMREIATFTRVSPNQRQMALNKFYENVSNTPAAQEILNSWGLSLTNNSNKISGRQMDIEQIYFSKISVSAGRSAEFSKHAVTNEMLKVVHLSKWIIIHLRNYRQAATSLLDNMKQACESLGMNISNPTMISLDHDRIDAYIQALRRNITMNTQMVVCICHNRRDDRYAAIKKICCSEIPIPSQVINAKTLQNDLKIRSVVQKIVLQMNCKLGGSLWTVKIPFKNVMICGIDSYHDPSNRGNSVAAFVASINSSYSQWYSKAVVQTKREEIVNGLSASFEIALKMYRKRNGKLPTNIIIYRDGIGDGQLYTCLNYEIPQFEMVCGNRIKISYIVVQKRINTRIFSGSGIHLENPLPGTVVDQHITKSNMYDFFLVSQLVRQGTVTPTHYVVLRDDCNYGPDIIQKLSYKLCFLYYNWAGTVRIPACCMYAHKLAYLIGQSIQRDVAEALSEKLFYL
As for B2, the binding result in assay [5] was “binds”; in assay [3], “binds”; in assay [4], “binds weakly”.
